# Measured values published in paper PMC9192632.
# By UniProt entry, the sequences of proteins in these tests, tags left out.
# UniProt O60488: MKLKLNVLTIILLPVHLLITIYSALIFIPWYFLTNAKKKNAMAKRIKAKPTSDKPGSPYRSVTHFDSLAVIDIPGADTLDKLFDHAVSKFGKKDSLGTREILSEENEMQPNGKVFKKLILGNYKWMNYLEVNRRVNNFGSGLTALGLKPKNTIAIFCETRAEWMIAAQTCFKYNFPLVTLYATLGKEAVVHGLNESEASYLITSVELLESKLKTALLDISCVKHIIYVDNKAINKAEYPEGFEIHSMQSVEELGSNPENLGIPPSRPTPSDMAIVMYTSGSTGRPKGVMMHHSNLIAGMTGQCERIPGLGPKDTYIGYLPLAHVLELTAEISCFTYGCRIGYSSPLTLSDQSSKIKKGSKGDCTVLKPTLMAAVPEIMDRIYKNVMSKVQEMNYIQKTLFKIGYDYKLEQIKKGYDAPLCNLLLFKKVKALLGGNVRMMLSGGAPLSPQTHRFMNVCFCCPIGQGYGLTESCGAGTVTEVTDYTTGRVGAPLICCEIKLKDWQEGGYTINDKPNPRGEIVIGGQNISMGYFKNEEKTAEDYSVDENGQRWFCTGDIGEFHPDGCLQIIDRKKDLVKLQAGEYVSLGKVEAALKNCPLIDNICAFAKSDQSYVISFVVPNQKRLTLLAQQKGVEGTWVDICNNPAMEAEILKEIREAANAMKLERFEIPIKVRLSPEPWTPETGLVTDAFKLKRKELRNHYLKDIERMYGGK
# UniProt O00429: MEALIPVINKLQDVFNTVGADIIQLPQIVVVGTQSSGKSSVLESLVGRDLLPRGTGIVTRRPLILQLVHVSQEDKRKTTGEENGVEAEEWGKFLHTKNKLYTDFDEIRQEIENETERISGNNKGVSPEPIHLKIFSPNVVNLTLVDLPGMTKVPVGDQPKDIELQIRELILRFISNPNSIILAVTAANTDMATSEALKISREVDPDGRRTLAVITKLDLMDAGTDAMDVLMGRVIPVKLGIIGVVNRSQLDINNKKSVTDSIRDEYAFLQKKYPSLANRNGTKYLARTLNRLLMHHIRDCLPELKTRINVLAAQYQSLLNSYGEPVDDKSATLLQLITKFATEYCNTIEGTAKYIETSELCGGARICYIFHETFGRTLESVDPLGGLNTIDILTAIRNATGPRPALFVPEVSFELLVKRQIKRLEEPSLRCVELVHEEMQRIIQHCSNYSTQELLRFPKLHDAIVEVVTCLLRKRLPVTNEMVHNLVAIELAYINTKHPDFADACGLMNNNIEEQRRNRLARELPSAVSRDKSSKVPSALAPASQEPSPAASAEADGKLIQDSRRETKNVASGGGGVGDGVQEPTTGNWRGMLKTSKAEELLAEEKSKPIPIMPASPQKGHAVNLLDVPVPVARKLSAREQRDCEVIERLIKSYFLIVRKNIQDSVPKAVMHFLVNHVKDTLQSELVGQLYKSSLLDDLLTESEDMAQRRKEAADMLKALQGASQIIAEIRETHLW
# Results are given in words; binding and its absence hold for the method and conditions named. Binding seen in cells or lysates may run through a third protein. Some entries that bind do so weakly or less than the wild type.
# Molecular target: Acyl-coenzyme A (CoA) synthetase long-chain family member 4 (human (endogenous in PL1 and PG7 patient-derived glioma cells)) (UniProt O60488)
# Assay: co-IP; PL1 and PG7 cells lysed in RIPA buffer with PMSF; lysate supernatant with Acsl4 antibody (ab155282) or IgG overnight at 4 °C, protein A/G plus agarose 6 h at 4 °C; immunoblotting
substance,measurement,value
dynamin-related protein 1 (from UniProt O00429 1-736),binding,binds
